The target in test [1] is T1, RXRα (Homo sapiens, UniProt P19793). Put plainly: holoreceptor transactivation assay. The conditions noted are these: read-out: Transactivation EC50 RXRα. The text has this:
(§1) A holoreceptor transactivation assay and a ligand binding assay which measure the antagonist/agonist like activity of the compounds of the invention, or their ability to bind to the several retinoid receptor subtypes, respectively, are described in published PCT Application No. WO WO93/11755 (particularly on pages 30-33 and 37-41) published on Jun. 24, 1993, the specification of which is also incorporated herein by reference. A detailed experimental procedure for holoreceptor transactivations has been described by Heyman et al. Cell 68, 397-406, (1992); Allegretto et al. J. Biol. Chem. 268, 26625-26633, and Mangelsdorf et al. The Retinoids: Biology, Chemistry and Medicine, pp 319-349, Raven Press Ltd., New York, which are expressly incorporated herein by reference. The results obtained in this assay are expressed in EC50 numbers, as they are also in the, chimeric receptor transactivation assay. The results of the ligand binding assay are expressed in Ki numbers. (See Cheng et al. Biochemical Pharmacology Vol. 22 pp 3099-3108, expressly incorporated herein by reference.)
(§2) Efficacy in a transactivation assay is expressed as a percentage of the maximum potency attained by the compound compared to a standard which, in this, case, is the compound named (2E, 4E, 1′S, 2′S)-3-methyl-5-[2′-methyl-2′-(5,5,8,8-tetramethyl-5,6,7,8-tetrahydro-naphthalen-2-yl)-cyclopropyl]-penta-2,4-dienoic acid. This standard compound is described in U.S. Pat. No. 6,114,533.
(§3) Table 1 discloses the activity of certain exemplary tetrahydronaphthale compounds of the invention in the above-described RXR receptor transactivation and binding assays. […]
(§4) In Tables 1 and 2 the binding Ki numbers are indicated in the first 3 columns. In the second set of three columns the numbers in parentheses indicate efficacy as a percentage compared to the standard compound, (2E, 4E, 1′S, 2′S)-3-methyl-5-[2′-methyl-2′-(5,5,8,8-tetramethyl-5,6,7,8-tetrahydro-naphthalen-2-yl)-cyclopropyl]-penta-2,4-dienoic acid and the other numbers indicate the measured EC50 in nanomolar concentration.

Protein sequences, listed by entry. Tags and fused reporters are not part of them.
UniProt P19793, whole entry: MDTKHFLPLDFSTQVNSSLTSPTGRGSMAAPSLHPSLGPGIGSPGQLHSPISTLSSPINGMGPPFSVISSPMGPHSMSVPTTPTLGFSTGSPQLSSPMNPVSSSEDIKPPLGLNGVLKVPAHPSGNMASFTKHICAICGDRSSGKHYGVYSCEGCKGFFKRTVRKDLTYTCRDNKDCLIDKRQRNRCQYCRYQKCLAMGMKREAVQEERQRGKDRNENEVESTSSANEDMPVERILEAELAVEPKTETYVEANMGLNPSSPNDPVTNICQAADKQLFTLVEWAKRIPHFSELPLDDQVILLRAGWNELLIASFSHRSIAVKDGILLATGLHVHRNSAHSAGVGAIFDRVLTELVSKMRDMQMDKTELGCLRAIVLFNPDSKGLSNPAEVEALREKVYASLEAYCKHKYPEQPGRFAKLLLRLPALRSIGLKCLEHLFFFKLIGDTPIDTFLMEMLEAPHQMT
UniProt P48443, whole entry: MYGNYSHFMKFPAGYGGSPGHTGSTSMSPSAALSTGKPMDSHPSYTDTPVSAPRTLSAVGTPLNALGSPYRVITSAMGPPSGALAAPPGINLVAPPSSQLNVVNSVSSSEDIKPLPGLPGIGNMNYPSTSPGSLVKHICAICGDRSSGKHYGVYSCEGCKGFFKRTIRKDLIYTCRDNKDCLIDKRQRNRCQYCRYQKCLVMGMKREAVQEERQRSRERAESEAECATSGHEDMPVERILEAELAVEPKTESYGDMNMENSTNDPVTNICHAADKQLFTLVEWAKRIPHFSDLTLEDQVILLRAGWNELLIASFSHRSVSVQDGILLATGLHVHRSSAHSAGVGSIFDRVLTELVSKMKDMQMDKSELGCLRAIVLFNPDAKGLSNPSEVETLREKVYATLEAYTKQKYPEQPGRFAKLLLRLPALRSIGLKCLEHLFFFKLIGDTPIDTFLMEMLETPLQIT
UniProt P28702, whole entry: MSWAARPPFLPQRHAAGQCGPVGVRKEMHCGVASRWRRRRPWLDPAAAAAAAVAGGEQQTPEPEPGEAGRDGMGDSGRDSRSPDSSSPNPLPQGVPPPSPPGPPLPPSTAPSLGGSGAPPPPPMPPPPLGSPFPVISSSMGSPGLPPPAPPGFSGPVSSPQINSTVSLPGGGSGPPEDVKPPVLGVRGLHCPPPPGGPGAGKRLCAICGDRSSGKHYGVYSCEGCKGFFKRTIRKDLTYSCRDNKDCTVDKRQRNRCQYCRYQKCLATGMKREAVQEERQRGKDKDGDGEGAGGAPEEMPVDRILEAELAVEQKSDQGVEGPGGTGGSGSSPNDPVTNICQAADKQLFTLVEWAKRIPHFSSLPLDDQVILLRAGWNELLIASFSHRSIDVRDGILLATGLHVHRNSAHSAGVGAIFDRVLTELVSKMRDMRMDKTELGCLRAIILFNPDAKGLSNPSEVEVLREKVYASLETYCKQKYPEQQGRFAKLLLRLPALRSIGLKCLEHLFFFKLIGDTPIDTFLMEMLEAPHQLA

The target of a further test is RXRγ (Homo sapiens, UniProt P48443). Put plainly: holoreceptor transactivation assay. The conditions noted are these: read-out: Transactivation EC50 RXRγ.
Excerpt: as §1, §2, §3, §4

The target of test [2] is T2, RXRβ (Homo sapiens, UniProt P28702). The test can be described thus: holoreceptor transactivation assay. The conditions noted are these: read-out: Transactivation EC50 RXRβ.
Excerpt: as §1, §2, §3, §4

For test [3], the target named is T1, RXRα. The test can be described thus: RXR ligand binding assay. The conditions noted are these: read-out: Binding Ki RXRα.
Excerpt: as §1, with “(See Cheng et al. Biochemical Pharmacology Vol. 22 pp 3099-3108, expressly incorporated herein by reference.)” left out
as §4

Test [4] has as its target T2, RXRβ. The test can be described thus: RXR ligand binding assay. The conditions noted are these: read-out: Binding Ki RXRβ.
Excerpt: as §1, with “(See Cheng et al. Biochemical Pharmacology Vol. 22 pp 3099-3108, expressly incorporated herein by reference.)” left out
as §4

What is called EC50 is the concentration needed to bring the measured effect to its halfway point. In general, Ki refers to a dissociation constant, usually derived from enzyme kinetics or from competition with a known ligand.

The match of structure and compound is tentative. Where only a bound is given, the exact number is not on record here.

Take `CCOC[C@H]1[C@@H](/C=C/C(C)=C/C(=O)O)[C@@]1(C)c1cc(C(C)C)cc(C(C)C)c1`: the EC50 at RXRα [1] is 48 nM; at RXRγ, 4480 nM; on RXRβ [2], more than 3000 nM. In addition, the inhibition constant (Ki) on RXRα [3] is 24 nM; on RXRβ [4] it was 96 nM.

Values taken from US6936636B2, “5-[phenyl-tetrahydronaphthalene-2-yl dihydronaphthalen-2-yl and heteroaryl-cyclopropyl]-pentadienoic acid derivatives having serum glucose reducing activity” (Allergan, Inc., priority 2003, dated 2005).
